Binding data for one substance are collected here from paper PMC8211912.

No constants are given. Whether binding was seen depends on the method and setting. Where a sequence is shown, tags or fusion partners need not be part of it.

The experiment deals with T1, AtSYP81 (yeast two-hybrid fusion) (Arabidopsis thaliana) (UniProt P59277).
T1 sequence: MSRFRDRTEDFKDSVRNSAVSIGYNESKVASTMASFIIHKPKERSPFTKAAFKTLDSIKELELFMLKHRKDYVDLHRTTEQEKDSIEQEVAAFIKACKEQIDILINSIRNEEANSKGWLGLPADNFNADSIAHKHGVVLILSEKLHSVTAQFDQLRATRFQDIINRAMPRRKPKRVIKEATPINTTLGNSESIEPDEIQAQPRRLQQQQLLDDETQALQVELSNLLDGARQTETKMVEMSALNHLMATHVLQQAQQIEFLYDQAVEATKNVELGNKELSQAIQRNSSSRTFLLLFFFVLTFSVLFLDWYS
Description: two-hybrid; Cytosolic regions in pGADT7 or pGBKT7, paired constructs in S. cerevisiae AH109; selected on SD/-Leu/-Trp, interactions examined on SD/-Leu/-Trp/-His/-Ade.

On to “AtSEC22 cytosolic region (yeast two-hybrid fusion) (Arabidopsis thaliana) (domain or fragment)”, for which the binding result is given as “no binding”.
